Experimental data: PubChem BioAssay AID743121 (NCATS, 2013)

Aim: 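Partners whose loss is lethal together with topoisomerase I blockade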 (primary screen)
Cells: MDA-MB-231 cells, a human breast cancer line
Reagents: single siRNA against human genes, 20 nM siRNA (0.8 pmol per well)
Time to read-out: 120 h (drug added 48 h after transfection, read 72 h later)
Challenge: camptothecin 20 nM (about EC30) for 72 h; vehicle 0.1% DMSO in parallel plates
Measured: 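Cell viability by ATP luminescence (CellTiter-Glo) as % of non-targeting siRNA wells, and the log2 ratio of viability without drug over viability with camptothecin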
Reading the numbers: log2 vehicle/camptothecin viability: higher = stronger sensitisation to camptothecin; viability with camptothecin: higher = more viable cells
Rule for the call: 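Active genes have an RSA gene-level p-value below 0.001, computed from the ratios of their separate siRNAs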
The deposit covers about 26,000 reagents; this is a part drawn at random. Of all reagents, 167 (0.63%) are marked active. 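Calls are per gene from RSA p-values that are not deposited; an individual active-marked siRNA can sensitise only weakly.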 Entries without a mark were called inactive. Reagents against one gene are numbered here. Not all columns of the deposit are shown.

The first 2 records as a preview:
BOK #1 | log2 vehicle/camptothecin viability = -0.145; viability with camptothecin (% of control) = 101
BOK #2 | log2 vehicle/camptothecin viability = 0.0406; viability with camptothecin (% of control) = 59.7

Results, from the first entry:
BOK #1 | log2 vehicle/camptothecin viability = -0.145; viability with camptothecin (% of control) = 101
BOK #2 | log2 vehicle/camptothecin viability = 0.0406; viability with camptothecin (% of control) = 59.7
BOK #3 | log2 vehicle/camptothecin viability = 0.144; viability with camptothecin (% of control) = 48.4
BOK #4 | log2 vehicle/camptothecin viability = 0.161; viability with camptothecin (% of control) = 30.7
DYRK1B #1 | log2 vehicle/camptothecin viability = -0.226; viability with camptothecin (% of control) = 109
DYRK1B #2 | log2 vehicle/camptothecin viability = -0.151; viability with camptothecin (% of control) = 23.8
DYRK1B #3 | log2 vehicle/camptothecin viability = 0.282; viability with camptothecin (% of control) = 37.3
DYRK1B #4 | log2 vehicle/camptothecin viability = 0.735; viability with camptothecin (% of control) = 41.8
EPHB3 #1 | log2 vehicle/camptothecin viability = -0.1; viability with camptothecin (% of control) = 97.4
EPHB3 #2 | log2 vehicle/camptothecin viability = -0.407; viability with camptothecin (% of control) = 117
EPHB3 #3 | log2 vehicle/camptothecin viability = -0.011; viability with camptothecin (% of control) = 90.3
EPHB3 #4 | log2 vehicle/camptothecin viability = -0.355; viability with camptothecin (% of control) = 47.5
PTK6 #1 | log2 vehicle/camptothecin viability = -0.247; viability with camptothecin (% of control) = 120
PTK6 #2 | log2 vehicle/camptothecin viability = -0.7; viability with camptothecin (% of control) = 51.4
PTK6 #3 | log2 vehicle/camptothecin viability = -0.375; viability with camptothecin (% of control) = 57.1
PTK6 #4 | log2 vehicle/camptothecin viability = -0.0273; viability with camptothecin (% of control) = 79.8
